Among the data in paper PMC6412121 are binding values, retold here.

Protein sequences, listed by entry. Tags and fused reporters are not part of them.
UniProt Q9BUR4: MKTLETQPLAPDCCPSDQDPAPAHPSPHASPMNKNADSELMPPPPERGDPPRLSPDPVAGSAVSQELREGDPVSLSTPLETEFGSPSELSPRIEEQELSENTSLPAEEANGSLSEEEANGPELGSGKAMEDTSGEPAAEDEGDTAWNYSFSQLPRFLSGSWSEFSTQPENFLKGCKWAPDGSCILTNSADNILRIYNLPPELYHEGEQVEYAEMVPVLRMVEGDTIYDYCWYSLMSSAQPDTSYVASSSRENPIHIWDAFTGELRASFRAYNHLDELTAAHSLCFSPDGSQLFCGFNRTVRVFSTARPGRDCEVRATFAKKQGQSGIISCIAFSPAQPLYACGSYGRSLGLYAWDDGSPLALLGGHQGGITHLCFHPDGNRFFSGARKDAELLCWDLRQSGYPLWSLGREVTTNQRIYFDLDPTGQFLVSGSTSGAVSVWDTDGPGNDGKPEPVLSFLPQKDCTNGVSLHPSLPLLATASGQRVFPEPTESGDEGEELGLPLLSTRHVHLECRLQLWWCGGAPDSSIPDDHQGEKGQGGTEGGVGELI
UniProt Q13148: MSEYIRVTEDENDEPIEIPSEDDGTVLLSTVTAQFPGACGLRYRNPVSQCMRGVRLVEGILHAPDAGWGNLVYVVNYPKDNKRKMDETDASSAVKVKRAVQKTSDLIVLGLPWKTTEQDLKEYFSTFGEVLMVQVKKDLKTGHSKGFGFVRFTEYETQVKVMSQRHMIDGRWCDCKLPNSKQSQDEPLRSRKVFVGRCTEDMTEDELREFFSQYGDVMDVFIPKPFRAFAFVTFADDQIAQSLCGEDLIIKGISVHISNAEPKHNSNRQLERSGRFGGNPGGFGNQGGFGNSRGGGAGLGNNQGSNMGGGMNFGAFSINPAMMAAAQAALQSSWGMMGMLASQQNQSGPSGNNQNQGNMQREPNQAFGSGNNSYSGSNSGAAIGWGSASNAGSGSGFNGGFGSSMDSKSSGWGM

Assay [1] has as its target WD40-repeat protein 79 (WDR79), endogenous (human (endogenous in T-REx 293)) (UniProt Q9BUR4). The experiment in a line: co-IP; serial two-step pull-down from DAP-TDP-43-expressing T-REx 293 cells (doxycycline 24 h): first with anti-FLAG (DAP-TDP-43), then with anti-WDR79; immunoblot with anti-WDR79 or streptavidin-HRP. A general note: Immunoblotting shows a protein as a band on a membrane.

For assay [2] the target is unchanged. The experiment in a line: co-IP; reciprocal pull-down with endogenous WDR79 as affinity bait; TDP-43 by immunoblot (Supplementary Figure S4C).
In assay [3] the target is HEF (HA, TEV cleavage site and FLAG)-tagged WDR79 (human (cDNA derived from 293T cells)) (UniProt Q9BUR4). The experiment in a line: co-IP; HEF-WDR79 as affinity bait, anti-FLAG (FLAG M2 agarose) from extracts of doxycycline-induced T-REx 293 cells (67 mM Tris-HCl pH 7.4, 200 mM NaCl, 0.1% IGEPAL CA-630, 4°C); TDP-43 by immunoblot; also after ncRNA or TDP-43 siRNA for 72 h (Figure 5B).

The target in assay [4] is DAP (His6-, biotin- and FLAG-tagged)-TDP-43, wild type (UniProt Q13148). The experiment in a line: co-IP; DAP-TDP-43 or its deletion mutants as affinity bait, captured on FLAG M2 agarose from extracts of doxycycline-induced T-REx 293 cells (67 mM Tris-HCl pH 7.4, 200 mM NaCl, 0.1% IGEPAL CA-630, 4°C); WDR79 by immunoblot; the paper calls it a pull-down; 'independently of RNA'.

Results are given in words; binding and its absence hold for the method and conditions named. In cells and extracts the contact can be indirect. Some entries that bind do so weakly or less than the wild type.

Turning to “DAP (His6-, biotin- and FLAG-tagged)-TDP-43, wild type (from UniProt Q13148 1-414)”, in assay [1], the binding result was “binds”.

Consider “TDP-43, endogenous (from UniProt Q13148 1-414)”, for which the binding entry in assay [2] and in assay [3] was “binds” throughout.

Regarding “WD40-repeat protein 79 (WDR79), endogenous (from UniProt Q9BUR4 1-548)”, in assay [4], the binding entry is given as “binds”.
